Results are given in words; binding and its absence hold for the method and conditions named. Binding seen in cells or lysates may run through a third protein. For part of these data: Where a sequence is shown, tags or fusion partners need not be part of it.
Experiments:
[1] = biological target: T1, HA-ΔRING-TRIM41 (mouse (endogenous in testis)) (UniProt Q5NCC3); test: co-IP; anti-TRIM41 antibody on Protein G magnetic beads; WT or Trim41ΔRING/ΔRING testis lysate in NP40 lysis buffer (50 mM Tris-HCl pH 7.5, 150 mM NaCl, 0.5% NP-40, 10% glycerol); 1 h at 4°C; SYCP3 immunoblot of the eluate
T1 sequence: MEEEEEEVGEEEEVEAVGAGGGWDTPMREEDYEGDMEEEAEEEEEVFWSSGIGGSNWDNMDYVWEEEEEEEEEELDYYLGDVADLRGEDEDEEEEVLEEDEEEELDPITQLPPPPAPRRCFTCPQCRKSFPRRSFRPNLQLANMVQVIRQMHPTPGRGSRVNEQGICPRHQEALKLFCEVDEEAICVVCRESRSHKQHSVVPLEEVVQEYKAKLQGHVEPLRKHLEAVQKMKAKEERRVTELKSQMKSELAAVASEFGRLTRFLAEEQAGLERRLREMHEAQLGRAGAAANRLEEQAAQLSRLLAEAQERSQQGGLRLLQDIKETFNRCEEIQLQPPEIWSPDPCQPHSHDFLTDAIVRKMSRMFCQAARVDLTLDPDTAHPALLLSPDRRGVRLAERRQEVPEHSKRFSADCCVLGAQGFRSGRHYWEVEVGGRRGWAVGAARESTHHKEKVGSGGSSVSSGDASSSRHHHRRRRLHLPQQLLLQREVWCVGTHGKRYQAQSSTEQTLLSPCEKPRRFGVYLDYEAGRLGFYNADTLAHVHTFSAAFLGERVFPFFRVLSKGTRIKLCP

[2] = biological target: T2, tripartite motif-containing 41 (TRIM41) (mouse (endogenous in testis)) (UniProt Q5NCC3); test: as above
T2 sequence: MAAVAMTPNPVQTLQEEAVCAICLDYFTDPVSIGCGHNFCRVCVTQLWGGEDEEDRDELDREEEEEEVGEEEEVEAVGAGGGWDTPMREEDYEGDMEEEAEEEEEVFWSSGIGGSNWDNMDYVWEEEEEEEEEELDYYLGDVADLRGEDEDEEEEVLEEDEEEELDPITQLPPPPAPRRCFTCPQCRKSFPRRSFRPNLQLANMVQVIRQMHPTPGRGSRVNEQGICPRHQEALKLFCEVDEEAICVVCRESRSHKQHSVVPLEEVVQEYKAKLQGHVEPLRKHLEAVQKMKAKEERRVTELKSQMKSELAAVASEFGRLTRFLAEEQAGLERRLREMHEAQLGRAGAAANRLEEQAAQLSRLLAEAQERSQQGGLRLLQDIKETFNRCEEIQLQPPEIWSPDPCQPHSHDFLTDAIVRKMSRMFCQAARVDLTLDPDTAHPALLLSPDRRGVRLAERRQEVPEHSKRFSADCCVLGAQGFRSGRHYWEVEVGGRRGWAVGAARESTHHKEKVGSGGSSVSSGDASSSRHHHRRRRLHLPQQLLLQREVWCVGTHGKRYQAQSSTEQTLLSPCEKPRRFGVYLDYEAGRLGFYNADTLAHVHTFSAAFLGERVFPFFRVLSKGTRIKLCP

[3] = biological target: T1, HA-ΔRING-TRIM41 (mouse (endogenous in testis)); test: co-IP; anti-HA antibody on Protein G magnetic beads; Trim41ΔRING/ΔRING testis lysate in NP40 lysis buffer (50 mM Tris-HCl pH 7.5, 150 mM NaCl, 0.5% NP-40, 10% glycerol); 1 h at 4°C; SYCP3 immunoblot of the eluate

binding [1]: no binding
binding [2]: no binding
binding [3]: no binding
B1: synaptonemal complex protein 3 (SYCP3) (protein, UniProt P70281 1-254)
chain: MLRGCGDSDSSPEPLSKHLKMVPGGRKHSGKSGKPPLVDQPKKAFDFEKDDKDLSGSEEDVADEKAPVIDKHGKKRSAGIIEDVGGEVQNMLEKFGADINKALLAKRKRIEMYTKASFKASNQKIEQIWKTQQEEIQKLNNEYSQQFMNVLQQWELDIQKFEEQGEKLSNLFRQQQKIFQQSRIVQSQRMFAMKQIHEQFIKSLEDVEKNNDNLFTGTQSELKKEMAMLQKKVMMETQQQEMANVRKSLQSMLF

Source: publication PMC9191731
